The values that follow come from article doi:10.1101/2025.04.14.648762.

Amino acid sequences for entries named in this document (tags omitted). A change or cut given only in a name is not applied to a line headed by its entry.
UniProt P25098: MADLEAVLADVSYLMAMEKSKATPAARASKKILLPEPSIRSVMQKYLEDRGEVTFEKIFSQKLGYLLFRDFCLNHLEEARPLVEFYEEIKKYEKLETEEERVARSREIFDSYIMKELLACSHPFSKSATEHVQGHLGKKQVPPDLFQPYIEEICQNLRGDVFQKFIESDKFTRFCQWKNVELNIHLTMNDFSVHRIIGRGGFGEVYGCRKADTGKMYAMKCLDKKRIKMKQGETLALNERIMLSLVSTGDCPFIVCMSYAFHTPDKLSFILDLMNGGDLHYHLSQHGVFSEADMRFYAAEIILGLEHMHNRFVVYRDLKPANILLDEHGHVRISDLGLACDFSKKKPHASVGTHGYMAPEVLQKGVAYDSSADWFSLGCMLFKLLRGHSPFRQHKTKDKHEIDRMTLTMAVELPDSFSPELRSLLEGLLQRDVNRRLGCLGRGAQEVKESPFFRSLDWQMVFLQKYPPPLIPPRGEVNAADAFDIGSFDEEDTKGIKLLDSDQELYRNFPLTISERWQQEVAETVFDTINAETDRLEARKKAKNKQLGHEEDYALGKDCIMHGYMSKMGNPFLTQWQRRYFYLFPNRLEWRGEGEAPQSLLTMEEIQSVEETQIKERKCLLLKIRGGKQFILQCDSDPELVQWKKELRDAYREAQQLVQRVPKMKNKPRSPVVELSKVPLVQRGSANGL
UniProt Q8TCU6: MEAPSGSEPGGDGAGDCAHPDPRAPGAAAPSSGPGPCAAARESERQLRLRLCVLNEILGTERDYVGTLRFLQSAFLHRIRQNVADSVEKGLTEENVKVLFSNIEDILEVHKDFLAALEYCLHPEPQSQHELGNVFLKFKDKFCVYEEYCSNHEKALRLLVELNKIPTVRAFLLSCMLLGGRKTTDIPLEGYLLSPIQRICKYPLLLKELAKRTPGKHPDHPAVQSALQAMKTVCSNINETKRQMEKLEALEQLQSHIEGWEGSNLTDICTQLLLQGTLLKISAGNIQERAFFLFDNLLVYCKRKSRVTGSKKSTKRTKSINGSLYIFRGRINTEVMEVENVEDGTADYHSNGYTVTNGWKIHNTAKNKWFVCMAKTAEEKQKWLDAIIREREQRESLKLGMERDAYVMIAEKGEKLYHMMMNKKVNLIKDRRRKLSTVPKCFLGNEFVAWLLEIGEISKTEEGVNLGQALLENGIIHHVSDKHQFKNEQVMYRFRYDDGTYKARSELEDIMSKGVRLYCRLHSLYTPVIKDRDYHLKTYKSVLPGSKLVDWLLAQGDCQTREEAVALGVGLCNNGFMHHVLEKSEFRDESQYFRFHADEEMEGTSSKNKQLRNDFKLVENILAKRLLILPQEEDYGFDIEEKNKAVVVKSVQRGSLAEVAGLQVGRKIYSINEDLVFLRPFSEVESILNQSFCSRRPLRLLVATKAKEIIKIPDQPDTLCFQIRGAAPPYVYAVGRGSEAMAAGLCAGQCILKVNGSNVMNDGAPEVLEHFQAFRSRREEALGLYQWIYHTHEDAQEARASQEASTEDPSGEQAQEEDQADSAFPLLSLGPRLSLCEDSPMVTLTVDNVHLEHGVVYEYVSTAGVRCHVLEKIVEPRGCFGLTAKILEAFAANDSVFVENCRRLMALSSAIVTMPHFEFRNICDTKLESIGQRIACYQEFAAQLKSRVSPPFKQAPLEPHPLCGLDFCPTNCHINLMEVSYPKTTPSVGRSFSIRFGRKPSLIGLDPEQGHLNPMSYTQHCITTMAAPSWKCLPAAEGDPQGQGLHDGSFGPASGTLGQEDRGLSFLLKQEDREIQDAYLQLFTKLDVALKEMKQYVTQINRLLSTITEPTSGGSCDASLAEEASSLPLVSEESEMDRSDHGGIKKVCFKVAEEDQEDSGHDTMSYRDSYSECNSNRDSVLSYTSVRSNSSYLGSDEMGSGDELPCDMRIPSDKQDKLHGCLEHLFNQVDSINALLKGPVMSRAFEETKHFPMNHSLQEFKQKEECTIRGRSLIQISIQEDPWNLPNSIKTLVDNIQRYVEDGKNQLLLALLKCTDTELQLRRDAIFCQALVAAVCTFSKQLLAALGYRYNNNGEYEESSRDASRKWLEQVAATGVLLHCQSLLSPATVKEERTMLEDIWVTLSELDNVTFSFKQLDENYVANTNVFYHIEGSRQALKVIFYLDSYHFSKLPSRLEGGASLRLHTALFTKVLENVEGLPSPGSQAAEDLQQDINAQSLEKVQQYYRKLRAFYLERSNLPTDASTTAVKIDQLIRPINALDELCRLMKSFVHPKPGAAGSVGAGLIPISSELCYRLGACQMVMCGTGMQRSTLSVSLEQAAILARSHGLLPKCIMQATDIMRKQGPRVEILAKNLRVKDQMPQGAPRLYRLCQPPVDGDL

Results are given in words; binding and its absence hold for the method and conditions named. A result given as binding can be weak or reduced; the word gives no strength.

For the test, the target named is GST-Grk2 (human) (UniProt P25098). Description: pull-down.

As to EE-P-Rex1 ΔPDZ (from UniProt Q8TCU6), the binding entry was “binds”.

On to EE-P-Rex1 ΔPH (from UniProt Q8TCU6), for which the binding entry is “binds”.
